These are yes or no findings as the source states them, for the method shown.
Molecular target: Hook1_(11–166) (human) (UniProt Q9UJC3)
Test: SEC-MALS; Superose 6 10/300 GL, 20 mM Tris pH 7.5, 100 mM NaCl, 1 mM DTT; both purified

Amino acid sequences for entries named in this document (tags omitted). A change or cut given only in a name is not applied to a line headed by its entry. Residues count along the entry.
UniProt Q9UJC3, residues 11-166: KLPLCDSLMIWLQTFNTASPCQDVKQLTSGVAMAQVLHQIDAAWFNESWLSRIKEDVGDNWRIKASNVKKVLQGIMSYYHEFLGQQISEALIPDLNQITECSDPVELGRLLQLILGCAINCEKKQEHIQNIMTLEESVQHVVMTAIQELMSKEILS

binding: no binding
Substance: Hook1_(11–166) (from UniProt Q9UJC3-1 11-166) (domain or fragment)
